According to the supplement of paper PMC3334620:
The full ranking holds about 33,000 sequences; the median of “E-score (-0.5 to 0.5)” is about -8e-05, and the highest 2% start at about 0.23. This is one part of the list.

The sequences below were run against T1, Nrg2 (UniProt P38082) (assay: PBM E-score (8-mer binding enrichment) (E-score (-0.5 to 0.5)); higher = stronger / more preferred TF binding). Details: protein concentration: 100 nM; construct: GST-full length.
T1 sequence: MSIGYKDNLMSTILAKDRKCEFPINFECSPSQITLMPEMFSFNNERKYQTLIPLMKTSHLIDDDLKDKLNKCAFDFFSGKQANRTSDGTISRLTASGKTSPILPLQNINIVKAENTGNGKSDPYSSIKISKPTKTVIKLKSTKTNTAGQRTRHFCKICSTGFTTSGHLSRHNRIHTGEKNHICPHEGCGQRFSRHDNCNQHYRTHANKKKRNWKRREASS
Procedure, shortened: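 Using PURExpress in vitro transcription/translation, GST-tagged yeast transcription factors were made in full-length or DNA-binding-domain form. These were applied at about 100-200 nM to double-stranded universal all-10-mer Agilent arrays, and bound protein was detected with fluorescent anti-GST. Scans were normalised with masliner before the Universal PBM Analysis Suite assigned E-scores to ungapped eight-base words pooled with their reverse complements.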

Sequence | PBM E-score
AGCACTAG | 0.0493
CTGATATA | -0.0319
GCAGATAC | 0.0184
GTTCATCA | 0.113
ACGACTCT | 0.0279
CGATCACC | 0.0627
CTGCGAAA | -0.115
CTGTAGTA | 0.245
AGCTGACT | 0.12
CATCTGGA | 0.0158
CCTTCGAG | -0.091
GATTTTTA | 0.0399
CCGGCGTA | -0.102
GATAGCCC | -0.125
AACGTGCA | -0.0525
ACGCAACT | 0.183
CTTGGATC | -0.0261
CGGTGGAA | -0.0997
AGGGAAAG | -0.0204
AACTTAAG | -0.0727
CAAGTCAG | -0.0172
GAAGATAA | 0.125
GAACTGCC | 0.0841
ATGGAGTC | -0.095
GACCGATA | 0.0777

Sequence | PBM E-score
ATCTGCGA | 0.0624
CCCGATCG | -0.026
AGGGAGGA | -0.202
ACTGTGGA | -0.109
GATCCGCC | 0.0473
GTCGAGCA | -0.21
CGCCTGAC | 0.0417
ATTCCCTG | 0.198
AGCAGTAG | -0.187
CCGCCTAG | -0.0286
AATGGTCC | 0.0501
GTAGCTAC | 0.123
AGACCAGA | -0.0154
AAGCGCAA | 0.147
CACATTAG | -0.122
ATTGCTAA | 0.11
CGGAACTA | 0.134
GGATATCC | 0.22
AGACGACT | -0.127
GAATATCC | 0.00739
CTCCACAA | 0.0307
CCGAACGG | -0.0332
CTAAAGGA | -0.086
GGGTAGGA | -0.0916
ATTTTTTG | 0.219

Sequence | PBM E-score
GCCCAAAA | -0.0396
AGTGGCAA | 0.0526
ATAAGTCG | -0.0756
AACCCTCC | -0.0766
AGGAGACT | -0.286
AACGTTGG | -0.175
CACGCTCA | 0.122
ATGTGCGA | -0.0684
CGTGCGCC | 0.086
ATGGCGGA | -0.0987
ATTGGTCC | 0.0937
CACCAAGA | 0.00109
GCGGATAC | 0.0466
AGGACCGC | 0.0225
GAAATTTC | 0.152
GAGTACTA | 0.0337
CGACTACA | 0.072
AGCTATAG | -0.23
GGGGGTAC | -0.143
AGCAAAGA | -0.0188
AAAGAGCT | -0.0911
AGTTGAAT | 0.136
CAGCTCGC | 0.0988
CTGAAAGC | 0.126
ATGGACTG | -0.0693

Sequence | PBM E-score
AATTTCTC | 0.143
TCCACCAA | 0.0692
AAGGGATA | 0.0928
AACCAAGA | 0.165
CGACAACC | -0.0659
GCAAGCGA | 0.0941
GATTTATA | 0.159
CGGGCTGC | 0.0198
CTGGCTAC | -0.167
ATGTGTCA | 0.12
ACAATCCT | 0.0925
CACATATG | -0.105
AACCCTGC | 0.134
CGTAGCTA | 0.102
AACTCTGG | -0.0749
ACCCGCCC | 0.103
GTACCTAA | -0.138
AATAATCC | -0.088
TATCCACA | 0.131
CTATGGAC | 0.0434
ACGTCTTG | -0.0332
ATTGCTGG | -0.166
AGTTTCCA | -0.104
CGGCTTAA | 0.14
ACCGTGCG | 0.132

Sequence | PBM E-score
AACATACA | -0.0232
AGCAATAG | -0.152
GTTCCTCA | -0.0478
AGAGGCTA | -0.248
GTAGGCAA | -0.163
ACGTCGTG | 0.0108
GATCTACC | 0.0319
CCCCACAG | -0.212
AAACGTTG | -0.0809
CCCGGGTA | 0.101
AGCGTATG | -0.0204
GACTCCTA | -0.159
AGCATCGC | -0.0887
AACGACTT | -0.169
CTTAGAAG | -0.0649
CATTCTAC | 0.0655
CAGTCATG | -0.0222
CAATACTA | 0.053
AGACGGGG | -0.11
TAATTATA | 0.319
CTGAATAA | 0.104
GGCGAAGA | -0.0414
CCCCTACG | -0.241
CCAGCTTC | -0.113
CGCACTAC | 0.0915

Sequence | PBM E-score
CAAGGATA | -0.0487
ACCACTTG | -0.0907
CACGGTAG | -0.149
GTCGTTAA | 0.011
CATTATGA | 0.0981
CACTAGTG | 0.0655
AGCCCCTC | 0.072
CCCAAAAC | 0.194
GACGGATA | 0.141
ATCGCTTA | -0.12
TGCACTAA | 0.0567
CGGGGGAG | -0.372
AGATTCGG | 0.063
AGCACATC | 0.0162
GAGTATGA | 0.0724
ACTATTGA | 0.149
TCCGATAA | -0.205
AGTGGATA | 0.0393
GATTTTAC | -0.105
ACTTGAGC | -0.295
ACATGAGT | -0.123
CCTATATC | 0.0227
AATTCCTC | 0.0114
GTCGTGGA | -0.103
CTCGAAGC | -0.0814

Sequence | PBM E-score
CGAAATAG | 0.0167
ACCAGGAG | 0.084
ACAAGACC | -0.181
AAGTAGAA | 0.0341
AGAGGTAC | -0.0262
TCTGCGCA | 0.115
CTCATAAG | -0.0657
CGTCCGAC | -0.166
CATCCCCC | -0.261
GACGAAGC | -0.0852
GGAACGAC | -0.259
CTAATAGA | 0.0351
GCCGCGAA | -0.0435
ATATAGTA | 0.155
ATCAGTTG | 0.122
GATCTTGC | 0.104
CGACCAGA | -0.0372
CTTCCATC | -0.137
GAGCGATC | -0.0196
TCGGCAAA | -0.0772
ATCGCACG | -0.137
GACATAGC | 0.00058
AAGCGCGA | 0.1
ACCAAGGA | -0.0125
ATCGGGGC | -0.0344

60 successive entries from above:
Sequence | PBM E-score
CTTAGAAG | -0.0649
CATTCTAC | 0.0655
CAGTCATG | -0.0222
CAATACTA | 0.053
AGACGGGG | -0.11
TAATTATA | 0.319
CTGAATAA | 0.104
GGCGAAGA | -0.0414
CCCCTACG | -0.241
CCAGCTTC | -0.113
CGCACTAC | 0.0915
CAAGGATA | -0.0487
ACCACTTG | -0.0907
CACGGTAG | -0.149
GTCGTTAA | 0.011
CATTATGA | 0.0981
CACTAGTG | 0.0655
AGCCCCTC | 0.072
CCCAAAAC | 0.194
GACGGATA | 0.141
ATCGCTTA | -0.12
TGCACTAA | 0.0567
CGGGGGAG | -0.372
AGATTCGG | 0.063
AGCACATC | 0.0162
GAGTATGA | 0.0724
ACTATTGA | 0.149
TCCGATAA | -0.205
AGTGGATA | 0.0393
GATTTTAC | -0.105
ACTTGAGC | -0.295
ACATGAGT | -0.123
CCTATATC | 0.0227
AATTCCTC | 0.0114
GTCGTGGA | -0.103
CTCGAAGC | -0.0814
CGAAATAG | 0.0167
ACCAGGAG | 0.084
ACAAGACC | -0.181
AAGTAGAA | 0.0341
AGAGGTAC | -0.0262
TCTGCGCA | 0.115
CTCATAAG | -0.0657
CGTCCGAC | -0.166
CATCCCCC | -0.261
GACGAAGC | -0.0852
GGAACGAC | -0.259
CTAATAGA | 0.0351
GCCGCGAA | -0.0435
ATATAGTA | 0.155
ATCAGTTG | 0.122
GATCTTGC | 0.104
CGACCAGA | -0.0372
CTTCCATC | -0.137
GAGCGATC | -0.0196
TCGGCAAA | -0.0772
ATCGCACG | -0.137
GACATAGC | 0.00058
AAGCGCGA | 0.1
ACCAAGGA | -0.0125

More results.

Sequence | PBM E-score
ACTCTCCC | -0.0739
AATAGACT | -0.0747
ATAACCCC | 0.0685
CCGTGTAC | 0.0899
CAGTACTA | 0.0797
ACATCTCT | -0.0152
CTAGCTTC | 0.0751
AACATTTG | 0.018
GGCAAAAA | 0.2
AAAACGCG | 0.285
AGTCGTCA | -0.152
ACCACCTC | 0.0373
TGGCCAAA | -0.0346
CCCTACAA | 0.169
GGAGGGTA | 0.0877
CGCCAGTA | -0.0877
CAGTTTCC | 0.0862
GATTCGCC | 0.155
AAGGTCCG | -0.0532
GATCGTAC | -0.0711
ACCGGAGC | -0.224
AAGCAGGT | -0.109
CGGCATCC | -0.0713
CAACCTCG | 0.146
CGAATACG | 0.119

Sequence | PBM E-score
CGTATACC | -0.137
TAGAGGGA | -0.221
CTGTAAAC | -0.18
ACGCCACA | 0.0755
CTTCCCTC | -0.154
ACCTCCCT | 0.0348
AGTAAGTC | -0.0316
AATCCCGC | 0.205
CCAATCTA | 0.0273
CTATCTAC | 0.00786
GCCTGACA | -0.173
TGGAGAAA | -0.00343
TACCAACA | -0.00283
TCTGTGCA | 0.134
GGTCAACC | -0.121
CCTCAGCC | -0.0964
GAATCGTA | 0.0106
AGCTTTAA | 0.0501
GAGAGCAA | -0.078
